## Library screening results

Data taken from ChEMBL document CHEMBL3988442, “University of Dundee, Small-Polar-MMV Screening Library” (2021).

A: 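Whole-cell assay for inhibitors of Mycobacterium tuberculosis growth, labelled Cornell in the record; the read-out is not stated. The concentration is filed as 10 mM, unlikely as a test dose, so the dose is not known. The record gives no direction; compounds strong in two other growth screens of this library score well above the rest, so higher reads as stronger inhibition. Of about 53,000 compounds tested this way, about 900 (1.7%) reached 50% or more in at least one test.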
B: 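Assay on Mycobacterium tuberculosis, filed only as a heat shock assay from Cornell; the read-out is not stated. The concentration is filed as 10 mM, unlikely as a test dose, so the dose is not known. Direction is inferred from retests: higher values go with stronger inhibition. About 69,000 compounds were tested under these conditions; 1.4% (about 930) showed 50% or more at least once.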

The filed quantity is “Percent Effect” (%).
How 0% and 100% were set is not recorded. Most values in the screen are low, and negative values occur.
This is an unselected part of the compounds tested.
A dash means the value is not listed here; it may have been measured.

| # | compound | A | B |
|---|---|---|---|
| 1 | `CCCNc1nnc(S(=O)(=O)CCOCC)s1` | - | 19.09 |
| 2 | `C[C@@H]1CN(C(=O)CCCN2CCCC2)CC[C@@]1(O)C1CCOCC1` | 17.09 | 10.71 |
| 3 | `c1csc(C(CNCc2cccc3c2OCO3)N2CCOCC2)c1` (stereo not drawn) | 29.4 | -12.75 |
| 4 | `Cc1ccc(N2CCCC(NCc3ccsc3)C2)nn1` (stereo not drawn) | -5.053 | 12.56 |
| 5 | `Cc1nn(C)c2cnn(C(C)C(=O)NCc3cccnc3)c12` (stereo not drawn) | - | 24.14 |
| 6 | `CC(C)(C)OC(=O)N1CCCN(c2nnc(Br)s2)CC1` | 21.79 | -7.6 |
| 7 | `Cn1cc(Cl)cc1C(=O)N1CCCN(Cc2nccn2C)CC1` | - | 15.1 |
| 8 | `O=C(NCCCOCc1ccco1)c1cccnc1N1CCOCC1` | -2.166 | -7.323 |
| 9 | `O=C(CCc1ccccc1)N1CCn2cc(Cn3cncn3)nc2C1` | -3.25 | -10.54 |
| 10 | `CN(CCc1ccccc1)Cc1c(C2CCOCC2)[nH]c2ncccc12` | 21.94 | -3.429 |
| 11 | `CCn1cnnc1CNC(=O)N1CCCC1` | -46.52 | -14.53 |
| 12 | `COc1c(CNCc2ccccc2Cn2cccn2)c(C)nn1C` | - | -20.1 |
| 13 | `c1cnc(N2CCCC3(CCN(Cc4cccs4)C3)C2)nc1` (stereo not drawn) | 16.91 | 4.004 |
| 14 | `CCCn1cc(CN2CCCC2c2nccc(CN(C)C)n2)cn1` (stereo not drawn) | -9.171 | -16.8 |
| 15 | `CN(C)CC(C)(C)CN1CCC(c2ccnc(-c3cccc(O)c3)c2)C1` (stereo not drawn) | -80.87 | -29.82 |
| 16 | `CC(C)C(=O)NCc1ccccc1NS(=O)(=O)c1ccccc1` | 3.745 | 16.93 |
| 17 | `Cc1nc(C)n(CC2CN(Cc3cccnc3)CCO2)n1` (stereo not drawn) | 17.08 | 7.945 |
| 18 | `CC(O)(CNC(=O)c1c(F)cccc1Cl)c1ccco1` (stereo not drawn) | -26.68 | -29.05 |
| 19 | `CCc1[nH]ncc1C(=O)N1CCCC(n2nc(C)cc2C)C1` (stereo not drawn) | - | -16.41 |
| 20 | `CCc1ncc(CNCc2cccnc2N(C)C)cn1` | 16.24 | -2.756 |
| 21 | `CC(C)Sc1nnnn1C1CCCC1` | 4.925 | -4.097 |
| 22 | `[H][C@@]12CN(CCOC)C[C@]1([H])[C@H](OC)CCN2C(=O)c1cccs1` | 3.747 | 6.351 |
| 23 | `CC(C)N1CCC(c2n[nH]cc2S(C)(=O)=O)CC1` | 0.6397 | -3.085 |
| 24 | `CCC(=O)N(CC)C(c1cccnc1)c1ccc2c(c1)CCO2` (stereo not drawn) | -12.42 | -6.58 |
| 25 | `CC(C)N(C(=O)Cn1nc2n(c1=O)CCCCC2)C1CCC1` | 0.8005 | 9.772 |
| 26 | `Cn1cc(CN2CCC(CCC(=O)NCc3ccc(F)cc3)CC2)cn1` | 27.31 | -36.74 |
| 27 | `Cc1ccc(S(=O)(=O)Nc2c(C)nn(C)c2C)cc1C` | - | 3.399 |
| 28 | `CCc1n[nH]c(C2CN(CCc3ccncc3)CCO2)n1` (stereo not drawn) | - | -1.485 |
| 29 | `COCC(=O)N1CCC2(CC1)CC(CC(=O)NC1CC1)c1ccccc12` (stereo not drawn) | 7.583 | 4.829 |
| 30 | `CSCCC(O)C(=O)N1CCC(OCc2cccnc2)CC1` (stereo not drawn) | -33.02 | -1.681 |
| 31 | `Cc1noc2ncc(C(=O)N3CCCC(n4cccn4)C3)cc12` (stereo not drawn) | 28.08 | -3.207 |
| 32 | `COc1cccc(CCC(=O)N2CCCC(n3cc(C)cn3)C2)c1` (stereo not drawn) | - | -20.8 |
| 33 | `COc1ccc(-c2noc(CCC(=O)N3CCOCC3(C)C)n2)cc1` | 10.89 | -9.302 |
| 34 | `COc1ccc(COCC(=O)N2CCCC(n3cncn3)C2)cc1` (stereo not drawn) | - | -24.79 |
| 35 | `CC(O)CN1CCN(C(=O)c2cccc3[nH]ncc23)CC1` (stereo not drawn) | -51.15 | -8.63 |
| 36 | `CCc1nc(C)c([C@H]2CN(C)C[C@@H]2C(=O)NCc2ccccc2OC)[nH]1` | 10.41 | -25.14 |
| 37 | `COCC(=O)N1CCN(C(=O)c2cccs2)[C@@H](C(=O)OC)C1` | - | -7.75 |
| 38 | `CCC(CN1CCCC1)n1cncc1-c1cnn(-c2ccccc2)c1.Cl` (stereo not drawn) | 55.09 | -7.106 |
| 39 | `CCn1cc(S(=O)(=O)Nc2cccnc2-n2cccn2)nc1C` | 31.71 | 3.197 |
| 40 | `COC(=O)N1CCCC(C(=O)Nc2ccccc2CN2CCCC2)C1` (stereo not drawn) | 32.05 | -2.439 |
| 41 | `Br.CCOc1ccc(Br)cc1C1CCCN1` (stereo not drawn) | 3.238 | 1.349 |
| 42 | `Cc1ccc(C2CN(C(=O)c3c(C)cc(C)[nH]c3=O)CCO2)c(C)c1` (stereo not drawn) | -15.87 | -2.454 |
| 43 | `Cn1cnc2c1CCN(Cc1csc(-c3ccc(F)cc3)n1)C2` | - | 1.572 |
| 44 | `Cc1nn(C)c2c(N(C)Cc3cccs3)nc(C3CC3)nc12` | -29.51 | 16.24 |
| 45 | `CCOC1CCCN(C(=O)NCCc2ccn(-c3ccccc3)n2)C1` (stereo not drawn) | - | -16.12 |
| 46 | `COc1ccc(C[C@H]2CN(C(=O)c3ccc(C)nc3)CC[C@@H]2OC)cc1.O=C(O)C(F)(F)F` | -2.532 | -2.913 |
| 47 | `CCc1nccn1CC1CCCN1S(=O)(=O)N1CCCOCC1` (stereo not drawn) | -27.02 | -1.635 |
| 48 | `CC(=O)N1CC(C)CN(C(=O)c2cnccn2)c2ccccc21` (stereo not drawn) | 10.22 | -1.459 |
| 49 | `COc1ccccc1OC1CN(C(=O)Cc2c(C)nc(C)[nH]c2=O)C1` | 8.217 | 6.493 |
| 50 | `O=C(O)C(F)(F)F.[H][C@@]12CN(C(=O)C3CC=CC3)C[C@]1([H])C(=O)N(Cc1ccncc1)C2` | -8.801 | -3.564 |
| 51 | `CC(C)c1noc(CN2CCC3(CCCO3)CCC2=O)n1` (stereo not drawn) | 5.907 | 9.425 |
| 52 | `CCn1cnnc1CNC(=O)CCC(=O)c1ccc2c(c1)OCCO2` | -42.94 | 1.783 |
| 53 | `O=C(c1ccc(=O)[nH]c1)N1CCc2c(nc(-c3cccnc3)[nH]c2=O)C1` | -9.717 | 7.129 |
| 54 | `NC(=O)C1Cc2ccccc2CN1CCC(=O)N1CCc2ccccc21` (stereo not drawn) | - | -170.4 |
| 55 | `CCc1[nH]ncc1C(=O)N1CCN(c2nc(C)cc(OC)n2)CC1` | 13.61 | -1.261 |
| 56 | `Nc1cc(-c2c[nH]nc2C2CCCCN2C(=O)C2CCCC2)ccn1` (stereo not drawn) | -4.533 | 23.62 |
| 57 | `Cc1cc(N(C)C)nc(N2CCN(Cc3nccn3C)CC2)n1` | 9.848 | -21.62 |
| 58 | `Cc1ccc(NCc2ccc(C#N)cc2)c(CN(C)C)c1` | -9.003 | -24.71 |
| 59 | `Cc1cccc(-c2nccn2C2CC(=O)N(C(C)C)C2)n1` (stereo not drawn) | -16.63 | 2.285 |
| 60 | `CCC(=O)N1CCCC1c1csc(Nc2cnccn2)n1` (stereo not drawn) | - | -6.526 |